According to ChEMBL document CHEMBL4359816, “Discovery and Optimization of Quinolinone Derivatives as Potent, Selective, and Orally Bioavailable Mutant Isocitrate Dehydrogenase 1 (mIDH1) Inhibitors” (J Med Chem, 2019):
Values after ≈ are worked out from the molar mass of the structure shown.

Tests used:
[1] = Metabolic stability in mouse liver microsomes assessed as compound remaining after 30 mins; type: ADME, Microsome; details: read-out: Stability
[2] = Kinetic solubility of the compound; type: physicochemical; details: read-out: Kinetic_solubility
[3] = Metabolic stability in human liver microsomes assessed as compound remaining after 30 mins; type: ADME, Microsome; details: read-out: Stability
[4] = Octanol/aqueous buffer partition coefficient, log D of the compound at pH 7.4; type: physicochemical

remaining at 0.5 h [1]: 98% | solubility kinetic [2]: 22.4 µM (≈ 7.61 µg/mL) | remaining at 0.5 h [3]: 97% | logD [4]: 3.11
SMILES: Cc1nc(N[C@@H](C)c2cc3cc(Cl)ccc3[nH]c2=O)ncc1C#N
